In ChEMBL document CHEMBL4296183, “CO-ADD screening of NIH NCI Natural Product Set III” (2020):
The other results are listed elsewhere or left out. Results with a measured potency or affinity are listed apart.

system: Pseudomonas aeruginosa; settings: Concentration 20 uM; ASSAY_TEST Inhibition of Bacterial Growth; detection method Absorption (OD600); MEDIA CAMHB; plate type 384well; NBS; CORNING #3640; time 18 hr

SMILES | Inhibition [%]
COc1c2occc2c(OC)c2c(=O)cc(C)oc12 [KHELLIN] | 13.85
CC1CC(O)C2C3(C)CCCC2(COC3=O)C12CCC1(CCOC1=O)O2 (stereo not given) | 4.63
COc1ccc(C2CC(=O)c3c(O)cc(OC4OC(CO)C(O)C(O)C4OC4OC(C)C(O)C(O)C4O)cc3O2)cc1O (stereo not given) | 9.41
CC(=O)O.COc1ccc2c(=O)oc3c(OC)cc(CCN(C)C)c4c(=O)oc1c2c34 | 10.84
CC1(C)CCCC2(C)C3=C(CCC12)C(=O)OC3 (stereo not given) | 10.4
COC(=O)[C@]1(C)CCC[C@]2(C)C3=CC(=O)[C@@]4(C(C)C)O[C@H]4[C@]3(O)CC[C@@H]12 | 13.48
CCC1NC(=O)C(NC(=O)c2ncccc2O)C(C)OC(=O)C(c2ccccc2)NC(=O)C2CC(=O)CCN2C(=O)C(Cc2ccccc2)N(C)C(=O)C2CCCN2C1=O (stereo not given) | 3.82
CCCCCC[C@H]([C@H](C)O)n1cnc2c(N)ncnc21.Cl | 10.53
COc1c2occc2cc2ccc(=O)oc12 [METHOXSALEN] | 12.61
CCCCCCCCCCCCCCCCCCOCC(O)CO (stereo not given) [BATILOL] | 3.22
COC(=O)NC1C(C)OC(OC2C/C=C(/C)C3C=CC4C(OC5CC(OC6CCC(OC7CC(O)C(OC8CCC(O)C(C)O8)C(C)O7)C(C)O6)C(OC(C)=O)C(C)O5)C(C)CC(C)C4C3(C)/C(O)=C3/C(=O)OC4(CC(C=O)=CC(O)C4/C=C\2C)C3=O)CC1(C)[N+](=O)[O-] (stereo not given) | 6.98
O=c1oc2c(O)c(O)cc3c(=O)oc4c(O)c(O)cc1c4c23 [ELLAGIC ACID] | -0.73
COc1cc([C@@H]2c3cc4c(cc3[C@@H](OC3OC5CO[C@@H](c6cccs6)OC5C(O)C3O)[C@H]3COC(=O)[C@H]23)OCO4)cc(OC)c1O (stereo not given in full) | -1.34
C[C@@H]1C(=O)C[C@H]2C(C)(C)CCC[C@]2(C)[C@@]1(O)CCc1ccoc1 | 0.26
CCCCCc1cc(O)cc2c1Oc1cc(O)cc(C(=O)CCCC)c1C(=O)O2 | 10.29
CC(=O)CCCCn1c(=O)c2c(ncn2C)n(C)c1=O [PENTOXIFYLLINE] | 8.89
Cc1cc2nc3[nH]c(=O)[nH]c(=O)c3nc2cc1C [LUMICHROME] | 11.55
CN1CCc2cc3c(cc2C(=O)Cc2ccc4c(c2C1)OCO4)OCO3.Cl [PROTOPINE HYDROCHLORIDE] | 11.77
COC(=O)C1C(O)CCC2CN3CCc4c([nH]c5ccccc45)C3CC21 (stereo not given) | 11.28
CC1=C2[C@H]3OC(=O)[C@@H](C)[C@@H]3CC[C@@]2(C)C=C/C1=N\O | 14.43
COc1cc(C)c2c(c1C=O)Oc1c(c(C)c(O)c3c1C(O)OC3=O)OC2=O (stereo not given) [STICTIC ACID] | 8.47
CC(C)=CC(=O)OC1C2C(C)C(=O)OC2C(O)C(C)C2C=CC(=O)C21C (stereo not given) | 5.57
CC(=O)Oc1ccc2ccc(=O)oc2c1OC(C)=O | 14.37
COc1c2c(cc3c1[C@@H]1Oc4c(ccc(O)c4CC=C(C)C)[C@@H]1CO3)OC(C)(C)C=C2 | -1.22
COC(=O)[C@@H]1[C@H]2C[C@@H]3c4[nH]c5ccccc5c4CCN3C[C@@H]2CC[C@@H]1O | 12.07

Compounds from the list above with an aryl methoxy group (7):
SMILES | Inhibition [%]
COc1c2occc2c(OC)c2c(=O)cc(C)oc12 [KHELLIN] | 13.85
COc1ccc(C2CC(=O)c3c(O)cc(OC4OC(CO)C(O)C(O)C4OC4OC(C)C(O)C(O)C4O)cc3O2)cc1O (stereo not given) | 9.41
CC(=O)O.COc1ccc2c(=O)oc3c(OC)cc(CCN(C)C)c4c(=O)oc1c2c34 | 10.84
COc1c2occc2cc2ccc(=O)oc12 [METHOXSALEN] | 12.61
COc1cc([C@@H]2c3cc4c(cc3[C@@H](OC3OC5CO[C@@H](c6cccs6)OC5C(O)C3O)[C@H]3COC(=O)[C@H]23)OCO4)cc(OC)c1O (stereo not given in full) | -1.34
COc1cc(C)c2c(c1C=O)Oc1c(c(C)c(O)c3c1C(O)OC3=O)OC2=O (stereo not given) [STICTIC ACID] | 8.47
COc1c2c(cc3c1[C@@H]1Oc4c(ccc(O)c4CC=C(C)C)[C@@H]1CO3)OC(C)(C)C=C2 | -1.22

The list continues:

SMILES | Inhibition [%]
CC(C)c1ccc2c(c1)CC[C@H]1[C@](C)(C(=O)O)CCC[C@]21C [DEHYDROABIETIC ACID] | 10.08
CC(C)CC1NC(=O)C(C(C)C)NC(=O)CC(C)COC(=O)C(CC(C)C)N(C)C(=O)C(C(C)C)NC(=O)C(C(C)C)OC1=O (stereo not given) | 3.95
CC(=O)C1CCCC(=O)/C=C/C(=O)O1 (stereo not given) | 3.65
COc1ccc2c(c1OC)C(=O)O[C@@H]2[C@H]1c2c(cc3c(c2OC)OCO3)CCN1C [NOSCAPINE] | 4.16
COc1cc2c(c(OC)c1OC)-c1ccc(OC)c(=O)cc1[C@@H](NC(C)=O)CC2 [COLCHICINE] | 8.5
COC(=O)C1C2CC3c4[nH]c5cc(OC)ccc5c4CCN3CC2CC(OC(=O)CCc2cc(OC)c(OC)c(OC)c2)C1OC (stereo not given) | 8.3
C=C1C(=O)OC2CC(C)C3(O)CCC(=O)C3(C)CC12 (stereo not given) | 11.6
CCC1OC(=O)C(C)C(OC2CC(C)(O)C(O)C(C)O2)C(C)C(O)C(C)(O)CC(C)C(=O)C(C)C(O)C1C (stereo not given) | 8.55
COc1cc2c3c(c4ccc(OC)c(OC)c4c2cc1OC)CN1CCC[C@@H]1C3 [TYLOCREBRINE] | 9.43
CC1(C)CC23C4COC(=O)C2CCC1C3CC4=O (stereo not given) | -4.04
CC(C)=CCc1c2c(c3occ(-c4ccc(O)c(O)c4)c(=O)c3c1O)C=CC(C)(C)O2 [POMIFERIN] | -2.68
CC[C@]1(O)C[C@H]2CN(CCc3c([nH]c4ccccc34)[C@@](C(=O)OC)(c3cc4c(cc3OC)N(C=O)[C@H]3[C@@](O)(C(=O)OC)[C@H](OC(C)=O)[C@]5(CC)C=CCN6CC[C@]43[C@@H]65)C2)C1.O=S(=O)(O)O [VINCRISTINE SULFATE] | 1.62
C=C1C(=O)OC2CC3(C)CCCC(C)C3=CC12 (stereo not given) | 7.79
C/C=C/c1cc2c(c(=O)o1)C(=O)[C@@H](O)[C@H](C)O2 | 9.46
COc1c(O)cc2oc3cc(O)c(CC=C(C)C)c(O)c3c(=O)c2c1CC=C(C)C [MANGOSTIN] | -1.39
COc1cc(/C=C/C(=O)CC(=O)/C=C/c2ccc(O)c(OC)c2)ccc1O [CURCUMIN] | 15.02
C=C1C(=O)OC2CC1C(O)C/C(C)=C/CC/C(C)=C/C(O)CC2C (stereo not given) | 11.12
COC1/C=C\C=C(/C)C(=O)NC2=CC(=O)C(N)=C(CC(C)CC(OC)C(O)C(C)/C=C(\C)C1OC(N)=O)C2=O (stereo not given) | 0.44
CC1(C)C(=O)N2c3ccccc3C3(CC(N4C(=O)c5ccccc5C4=O)C(=O)O3)C2N1C(=O)OCc1ccccc1 (stereo not given) | 4.43
CCCCCCCCCCCCCCCC(=O)O[C@@H]1[C@@H](C)[C@@]2(O)[C@@H](C=C(CO)C[C@]3(O)C(=O)C(C)=C[C@@H]23)[C@H]2[C@]1(OC(C)=O)[C@]2(C)CO | 9.28
O=c1oc2cc(O)ccc2c2oc3cc(O)ccc3c12 [COUMESTROL] | 5.32
C=C1C(=O)O[C@@H]2[C@H]3O[C@]3(C)CC/C=C(\C)CC[C@@H]12 | 8.5
O=C1c2cc(O)c(O)cc2O[C@H](c2ccc(O)c(O)c2)[C@H]1O | 16.81
O=C(O)CCCCCCC[C@@H](O)[C@@H](O)CCCCCCO | 11.37
COc1ccc2c(c1)O[C@H]1c3ccc(O)cc3OC[C@@H]21 | 7.57

Looked up by compound from above (2):
SMILES | Inhibition [%]
CC1(C)C(=O)N2c3ccccc3C3(CC(N4C(=O)c5ccccc5C4=O)C(=O)O3)C2N1C(=O)OCc1ccccc1 (stereo not given) | 4.43
CC(=O)C1CCCC(=O)/C=C/C(=O)O1 (stereo not given) | 3.65
